Percent effect of library compounds

Protein sequences, listed by entry. Tags and fused reporters are not part of them.
UniProt P9WNZ1, whole entry: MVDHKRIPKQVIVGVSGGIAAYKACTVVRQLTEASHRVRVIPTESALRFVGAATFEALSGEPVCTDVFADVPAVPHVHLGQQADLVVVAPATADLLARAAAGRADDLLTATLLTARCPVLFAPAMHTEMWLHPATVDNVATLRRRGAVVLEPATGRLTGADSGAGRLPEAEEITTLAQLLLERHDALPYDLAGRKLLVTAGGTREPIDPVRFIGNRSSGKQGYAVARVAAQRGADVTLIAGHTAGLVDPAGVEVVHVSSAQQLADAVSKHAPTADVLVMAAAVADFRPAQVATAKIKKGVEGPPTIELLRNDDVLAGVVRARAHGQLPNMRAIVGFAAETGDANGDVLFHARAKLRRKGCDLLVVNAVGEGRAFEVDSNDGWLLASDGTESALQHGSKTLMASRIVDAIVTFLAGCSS

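Enzyme assay of CoaBC with a phosphate dye (Biomol Green) read at 650 nm. Target: Coenzyme A biosynthesis protein CoaBC, Mycobacterium tuberculosis (UniProt P9WNZ1). Tested at 30 µM. Direction is inferred from only a few compounds that gave an IC50; most scored high, so higher reads as stronger inhibition. Most strong results did not repeat in a second test. Size under these conditions: about 67,000 compounds, about 40 of them at 50% or above in at least one test.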

Each number is a percent effect as filed.
The record does not define 0% and 100%; most values in the screen are far below 50% and negative numbers occur (in some assays of this library far below -100).
The compounds are a random part of those screened.

For CCN(C)c1ncnc2c1CCN(Cc1nccs1)CC2 the result was -1.018%. With COCCN1CCO[C@@H]2CN(C(=O)Cc3ccc(F)cc3)CC[C@@H]2C1 the screen gave -2.254%. With COc1cccc(S(=O)(=O)NC(=O)CCC2CCCO2)c1 (centres undefined) the screen gave 4.54%. For Cc1cc(N2CCCCC2)nc(N(CCO)CCO)c1C#N the result was 12.03%. COCCn1ccc(=O)c(OCC(=O)Nc2ccc(Br)cc2)c1C read 7.143%. For CCC(=O)NC1CCCN(Cc2ccc(NC(C)=O)cc2)C1 (centres undefined) the result was 13.2%. Cc1c(C(=O)N2CC(O)C2)nnn1-c1cccc2cnccc12 read 3.846%. Cc1ccc2oc(SCC(N)=O)nc2n1 gave 4.051%.

Result for Cc1cnn(CCNCc2ccc(F)cc2Cl)c1 was 8.769%. With Cc1nc(CO[C@H]2CN(Cc3cccs3)[C@@H]3COC[C@H]23)cs1 the screen gave 2.343%. CC(Cn1ccnc1)NC(=O)C1(c2ccccc2)CC1 (centres undefined) gave 5.357%. Result for CCC(CO)N(Cc1ccccn1)Cc1ccc(-c2ccn[nH]2)s1 (centres undefined) was 2.263%. CC1(C)[C@H](Cc2cc(CN3CCCCC3)on2)C[C@@H]1NC(=O)C1CC1 read 0%. O=C(c1ccc(-c2ccc(O)nc2)s1)N1CCCCCC1 read 19.17%. With CCOc1ccc(C#N)cc1NCC(=O)NC(=O)NC the screen gave 16.23%. Result for Cc1cccnc1NC(=O)C1(n2cnnn2)CCCCC1 was 3.291%.

CN(Cc1ncc(C(C)(C)C)o1)CC1CCCN1c1cccnn1 (centres undefined) gave -20%. For CC(C)N(C)C(=O)CN1CCCC(c2ccc(C(=O)O)cc2)C1 (centres undefined) the result was 7.456%. For O=C(CCc1ccccc1)N1CCn2cc(CN3CCCC3)nc2C1 the result was 3.422%. Result for CSCC[C@@H](CO)n1ccnc1-c1nccn1C was 1.72%. O=C(Cc1cccs1)N1C[C@@H]2COC[C@]2(COc2cccnc2)C1 read 7.66%. With c1cc(CN2CCCn3cnc(COCC4CC4)c3C2)ccn1 the screen gave -0.6452%. With Cc1cccc(-c2ccc(C(=O)NCCN3CCOCC3)c(=O)[nH]2)c1 the screen gave 5.372%. O=C(COc1cccnc1)N1CCOC(C(F)(F)F)C1 (centres undefined) gave 0%.

Cc1ccc(Oc2ncccc2C(=O)N(C)CCCN(C)C)c(C)c1 gave 3.398%. Result for CCCc1ccc(S(=O)(=O)NC2(CC(N)=O)CCC2)cc1 was -3.931%. With Cn1cc(CN2CCC3(CC2)CN(C(=O)c2cnccn2)CCO3)cn1 the screen gave -3.822%. CCN(CC(F)(F)F)C(=O)C1CCCN(Cc2ccno2)C1 (centres undefined) gave 6.098%. For O=C(N1CCC(Nc2cccnn2)CC1)C1(c2ccc(F)cc2)CC1 the result was 1.054%. With OCCN1CCC(CNCc2ccc(Br)cc2)CC1 the screen gave -3.178%. For COc1cccc(C(O)C(=O)N(C)CCc2ccccn2)c1 (centres undefined) the result was 3.418%. CN(C)CCNC(=O)c1cnc2c(c1)nc(-c1ccccc1Cl)n2C read -31.72%.

With Cc1ccc2c(c1)C1(CCNCC1)CN2C(=O)CN(C)C the screen gave 6.941%. For O=C(c1ccc2[nH]nnc2c1)N1CCC(Nc2cccnn2)CC1 the result was 7.355%. For CC(C)Nc1ncc(-c2csc(NC(=O)C[C@H]3COCCN3)n2)cn1 the result was 2.048%. For Cc1nn(Cn2ccc(C(=O)N3CCCC3)n2)c(C)c1Cl the result was 2.237%. CCn1ncc2c1C(COC)CN(Cc1ccc(OC)cc1)C2 (centres undefined) gave 11.01%. Result for COc1ccccc1CC(=O)N1CCCC(c2cc(C)[nH]n2)C1 (centres undefined) was -1.048%. With CN(C)C(=O)C1CCc2nnc(CNC(=O)c3ccc(Cl)cc3Cl)n21 (centres undefined) the screen gave 2.632%. With Cn1ncc2c1NC(=O)CSC2c1ccccc1Cl (centres undefined) the screen gave 2.911%.

Cc1ccccc1S(=O)(=O)Cc1nsc(N(C)C)n1 gave 0.1229%. Result for CCN1CCCC1CNCc1cc2cc3c(cc2[nH]c1=O)OCCO3 (centres undefined) was -20.43%. Result for CCOCC(=O)N1CCC[C@]2(C[C@@H](OCc3ccncc3)CO2)C1 was 7.742%. Result for c1ccc2oc(CCCN3CCc4cncnc4C3)nc2c1 was 0.2273%. Cc1ccc(CNCc2c(C)nn(C)c2N(C)C)cn1 read -2.146%. CC(=O)N1CCCC(c2ccc(N3CCN(C)CC3)cn2)C1 (centres undefined) gave 0.8674%. O=C(c1ccnnc1)N1C[C@@H](OCc2cccnc2)[C@H]2OCCC[C@H]21 read 6.824%. Cc1nc(O)c2nnn(C[C@H]3CCCN3C(=O)C3CCCC3)c2n1 gave 2.206%.

Cc1c(C(=O)N2CCC3(CCCN(CC4CC4)C3=O)C2)ccn1C (centres undefined) read 0.8485%. O=C(NCCNc1ccc(C(F)(F)F)cn1)c1ccc(F)cc1Cl read 2.611%.

Some entries from above, unchanged:

SMILES	percent effect
O=C(c1ccc(-c2ccc(O)nc2)s1)N1CCCCCC1	19.17%
Cc1c(C(=O)N2CC(O)C2)nnn1-c1cccc2cnccc12	3.846%
Cn1cc(CN2CCC3(CC2)CN(C(=O)c2cnccn2)CCO3)cn1	-3.822%
Cc1ccc(Oc2ncccc2C(=O)N(C)CCCN(C)C)c(C)c1	3.398%

The values are deposited in ChEMBL (CHEMBL3988442, “University of Dundee, Small-Polar-MMV Screening Library” (2021)).